Results reported in patent publication US8518946B2, “Salts of (R)-7-[3-amino-4-(2,4,5-trifluorophenyl)butanoyl]-3-trifluoromethyl-5,6,7,8-tetrahydroimidazo[1,5-a] pyrazine-1-carboxylic acid, preparation method and medical use thereof” (Jiangsu Hengrui Medicine Co., Ltd., priority 2009, dated 2013).
The name of at least one read-out is uncertain.

Test: Pharmacokinetics assay in rats (LC/MS/MS plasma concentration)
Type: in vivo, SD rats
Text: The compound of Example 3 was administrated intragastrically or tail vein injection to rats and the compounds of Example 1-4, Example 9 and Example 11-12 were administrated intragastrically to determine the drug concentration in plasma at different time points by LC/MS/MS measurement. The pharmacokinetics of the compounds of the present invention was studied and evaluated in rats. And the oral absolute bioavailability was investigated.
Compounds of Example 1-4, Example 9 and Example 11-12.
[…] healthy adult SD rats, male and female in half, were purchased from SINO-BRITSH SIPPR/BK LAB.ANIMAL LTD., CO, License number: SCXK (Shanghai) 2008-0016.
Vein injection group: the proper weighed test compound was dissolved in 0.5 mL of DMSO by ultrasound and then diluted with normal saline to 15 mL to form a 0.3 mg/mL solution.
Intragastrically administered group: the proper weighed test compound was dissolved in 0.5% CMC-Na by ultrasound to form a 0.3 mg/mL of suspension.
32 healthy adult SD rats, male and female in half, were divided into 8 groups so that each group consisted 4 rats. After an overnight fast, the rats were tail vein injected of the compound of Example 3 and intragastrically administered the compound of Example 3 and the salt thereof, at a dose of 3.0 mg/kg (calculated as the free base form) and a volume of 10 mL/kg.
Blood samples (0.2 mL) of the rats in vein injection group were taken from eye socket at pre administration and at 2, 15, 30 minutes and 1.0, 2.0, 4.0, 6.0, 8.0, 12.0, 24.0 hours post administration, which were stored in heparinized tubes and centrifuged for 10 minutes at 3,500 rpm. The plasma samples were stored at −20° C. until analysis. The rats were fed 2 hours after administration.
Blood samples of the rats in intragastrically administered group were taken at pre administration and at 0.5, 1.0, 2.0, 3.0, 4.0, 6.0, 8.0, 12.0, 24.0 hours post administration. The samples were treated with the same method as mentioned above.
50 μL of internal standard solution and 150 μL of methanol were added to 50 μL of rat plasma obtained at various time points after administration. Then the mixture was mixed for 3 minutes using a vortexer and centrifuged for 10 minutes at 13,500 rpm. 10 μL of the supernatant was analyzed by LC/MS/MS.
The compartmental model of pharmacokinetics was fitted for the test compounds and the major pharmacokinetic parameters were calculated by DAS 2.0 software in which Cmax and tmax were the actually measured values. The absolute bioavailability was calculated by AUC0-t taken from post administration and vein injection.

N[C@@H](CC(=O)N1CCn2c(C(F)(F)F)nc(C(=O)O)c2C1)Cc1cc(F)c(F)cc1F [Example 2, (R)-7-[3-Amino-4-(2,4,5-trifluorophenyl)butanoyl]-3-trifluoromethyl-5,6,7,8-tetrahydro-imidazo[1,5-a]pyrazine-1-carboxylic acid phosphate]
Vz/F (intragastric 3.0 mg/kg, phosphate): 41 ± 29.7 L/kg

N[C@@H](CC(=O)N1CCn2c(C(F)(F)F)nc(C(=O)O)c2C1)Cc1cc(F)c(F)cc1F [Example 9, 2-Hydroxyethylammonium (R)-7-[3-amino-4-(2,4,5-trifluorophenyl)butanoyl]-3-trifluoromethyl-5,6,7,8-tetrahydro-imidazo[1,5-a]pyrazine-1-carboxylate]
Vz/F (intragastric 3.0 mg/kg): 155 ± 63 L/kg

N[C@@H](CC(=O)N1CCn2c(C(F)(F)F)nc(C(=O)O)c2C1)Cc1cc(F)c(F)cc1F [Example 3, (R)-7-[3-Amino-4-(2,4,5-trifluorophenyl)butanoyl]-3-trifluoromethyl-5,6,7,8-tetrahydro-imidazo[1,5-a]pyrazine-1-carboxylic acid]
Vz/F (intragastric 3.0 mg/kg): 193 ± 38 L/kg
Vz/F (tail vein injection 3.0 mg/kg): 6.05 ± 6.53 L/kg
